From article PMC3854969 come the findings set out here.

Amino acid sequences for entries named in this document (tags omitted). Residues count along the entry.
UniProt Q3SXY8: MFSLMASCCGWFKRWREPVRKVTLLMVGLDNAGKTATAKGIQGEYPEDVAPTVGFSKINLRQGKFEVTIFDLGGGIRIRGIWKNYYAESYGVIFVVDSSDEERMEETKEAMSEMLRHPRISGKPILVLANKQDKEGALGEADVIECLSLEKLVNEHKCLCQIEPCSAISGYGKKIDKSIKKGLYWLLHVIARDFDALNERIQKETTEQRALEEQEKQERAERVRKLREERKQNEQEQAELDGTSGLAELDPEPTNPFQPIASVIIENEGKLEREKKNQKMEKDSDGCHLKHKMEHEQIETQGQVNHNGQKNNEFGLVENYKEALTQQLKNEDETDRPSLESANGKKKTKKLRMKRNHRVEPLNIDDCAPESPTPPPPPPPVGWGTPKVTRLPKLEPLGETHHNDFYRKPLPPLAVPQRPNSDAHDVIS
UniProt Q5TAQ9: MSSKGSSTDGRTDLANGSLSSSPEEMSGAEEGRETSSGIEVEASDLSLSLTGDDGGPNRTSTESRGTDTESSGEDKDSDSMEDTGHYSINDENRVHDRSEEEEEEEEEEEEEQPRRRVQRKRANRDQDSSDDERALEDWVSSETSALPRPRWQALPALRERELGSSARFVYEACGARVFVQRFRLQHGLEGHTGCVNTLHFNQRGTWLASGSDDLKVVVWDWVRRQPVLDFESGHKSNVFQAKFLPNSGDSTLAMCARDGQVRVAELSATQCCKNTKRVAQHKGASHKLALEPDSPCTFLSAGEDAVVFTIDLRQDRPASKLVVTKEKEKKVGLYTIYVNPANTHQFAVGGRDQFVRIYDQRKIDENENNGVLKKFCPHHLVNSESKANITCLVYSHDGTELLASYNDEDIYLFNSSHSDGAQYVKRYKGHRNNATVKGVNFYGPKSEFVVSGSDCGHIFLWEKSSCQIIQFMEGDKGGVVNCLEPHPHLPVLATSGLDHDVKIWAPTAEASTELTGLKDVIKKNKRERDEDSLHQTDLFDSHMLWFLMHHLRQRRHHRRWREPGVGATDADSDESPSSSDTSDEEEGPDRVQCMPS
UniProt O15397: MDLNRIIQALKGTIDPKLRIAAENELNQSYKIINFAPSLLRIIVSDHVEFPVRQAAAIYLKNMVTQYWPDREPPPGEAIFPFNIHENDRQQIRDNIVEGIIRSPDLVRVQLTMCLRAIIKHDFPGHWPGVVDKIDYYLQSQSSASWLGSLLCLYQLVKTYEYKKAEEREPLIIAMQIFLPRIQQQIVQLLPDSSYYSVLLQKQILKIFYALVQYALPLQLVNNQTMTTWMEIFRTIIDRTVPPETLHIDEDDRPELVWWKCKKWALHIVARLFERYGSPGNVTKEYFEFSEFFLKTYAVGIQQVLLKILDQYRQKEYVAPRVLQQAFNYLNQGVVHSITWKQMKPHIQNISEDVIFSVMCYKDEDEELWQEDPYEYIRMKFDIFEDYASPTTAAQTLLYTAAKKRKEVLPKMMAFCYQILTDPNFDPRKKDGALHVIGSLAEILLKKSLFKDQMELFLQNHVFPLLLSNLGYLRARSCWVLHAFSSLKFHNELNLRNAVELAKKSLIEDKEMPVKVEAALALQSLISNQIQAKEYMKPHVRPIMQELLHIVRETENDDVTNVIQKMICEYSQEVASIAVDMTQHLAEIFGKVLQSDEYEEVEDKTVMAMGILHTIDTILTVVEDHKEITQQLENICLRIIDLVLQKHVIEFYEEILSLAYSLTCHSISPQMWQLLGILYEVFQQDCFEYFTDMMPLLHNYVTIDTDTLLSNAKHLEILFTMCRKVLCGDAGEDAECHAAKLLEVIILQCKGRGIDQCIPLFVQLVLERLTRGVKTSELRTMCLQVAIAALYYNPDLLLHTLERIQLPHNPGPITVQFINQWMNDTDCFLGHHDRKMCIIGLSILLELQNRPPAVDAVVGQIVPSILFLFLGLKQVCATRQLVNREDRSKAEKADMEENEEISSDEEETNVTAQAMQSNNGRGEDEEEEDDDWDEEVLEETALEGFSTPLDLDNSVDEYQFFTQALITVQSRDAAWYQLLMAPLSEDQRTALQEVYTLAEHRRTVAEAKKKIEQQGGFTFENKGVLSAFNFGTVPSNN
UniProt P10321, residues 25-366: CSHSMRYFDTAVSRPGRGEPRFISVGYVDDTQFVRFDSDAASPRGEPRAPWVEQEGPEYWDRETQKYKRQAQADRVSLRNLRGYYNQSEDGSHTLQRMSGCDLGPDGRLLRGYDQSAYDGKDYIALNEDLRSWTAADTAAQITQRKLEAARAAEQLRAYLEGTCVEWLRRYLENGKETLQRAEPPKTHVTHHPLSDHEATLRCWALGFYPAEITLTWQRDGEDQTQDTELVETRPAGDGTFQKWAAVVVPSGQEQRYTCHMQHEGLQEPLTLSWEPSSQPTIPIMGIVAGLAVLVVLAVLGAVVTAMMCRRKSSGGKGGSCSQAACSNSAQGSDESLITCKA
UniProt Q8IZ07: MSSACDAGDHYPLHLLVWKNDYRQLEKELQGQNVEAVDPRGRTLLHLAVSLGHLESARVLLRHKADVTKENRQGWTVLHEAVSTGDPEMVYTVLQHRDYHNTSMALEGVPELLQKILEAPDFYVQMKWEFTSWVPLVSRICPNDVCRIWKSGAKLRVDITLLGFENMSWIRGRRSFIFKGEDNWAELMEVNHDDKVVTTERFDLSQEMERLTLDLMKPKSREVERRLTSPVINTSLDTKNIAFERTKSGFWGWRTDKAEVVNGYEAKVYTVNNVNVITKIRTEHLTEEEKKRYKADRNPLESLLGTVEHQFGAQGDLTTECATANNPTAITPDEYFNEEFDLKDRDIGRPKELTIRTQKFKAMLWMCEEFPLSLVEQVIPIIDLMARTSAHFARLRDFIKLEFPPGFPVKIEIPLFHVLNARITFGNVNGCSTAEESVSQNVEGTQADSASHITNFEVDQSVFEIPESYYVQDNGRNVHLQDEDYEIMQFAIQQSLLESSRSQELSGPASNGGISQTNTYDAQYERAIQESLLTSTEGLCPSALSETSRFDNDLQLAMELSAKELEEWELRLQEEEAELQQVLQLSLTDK
UniProt P55786: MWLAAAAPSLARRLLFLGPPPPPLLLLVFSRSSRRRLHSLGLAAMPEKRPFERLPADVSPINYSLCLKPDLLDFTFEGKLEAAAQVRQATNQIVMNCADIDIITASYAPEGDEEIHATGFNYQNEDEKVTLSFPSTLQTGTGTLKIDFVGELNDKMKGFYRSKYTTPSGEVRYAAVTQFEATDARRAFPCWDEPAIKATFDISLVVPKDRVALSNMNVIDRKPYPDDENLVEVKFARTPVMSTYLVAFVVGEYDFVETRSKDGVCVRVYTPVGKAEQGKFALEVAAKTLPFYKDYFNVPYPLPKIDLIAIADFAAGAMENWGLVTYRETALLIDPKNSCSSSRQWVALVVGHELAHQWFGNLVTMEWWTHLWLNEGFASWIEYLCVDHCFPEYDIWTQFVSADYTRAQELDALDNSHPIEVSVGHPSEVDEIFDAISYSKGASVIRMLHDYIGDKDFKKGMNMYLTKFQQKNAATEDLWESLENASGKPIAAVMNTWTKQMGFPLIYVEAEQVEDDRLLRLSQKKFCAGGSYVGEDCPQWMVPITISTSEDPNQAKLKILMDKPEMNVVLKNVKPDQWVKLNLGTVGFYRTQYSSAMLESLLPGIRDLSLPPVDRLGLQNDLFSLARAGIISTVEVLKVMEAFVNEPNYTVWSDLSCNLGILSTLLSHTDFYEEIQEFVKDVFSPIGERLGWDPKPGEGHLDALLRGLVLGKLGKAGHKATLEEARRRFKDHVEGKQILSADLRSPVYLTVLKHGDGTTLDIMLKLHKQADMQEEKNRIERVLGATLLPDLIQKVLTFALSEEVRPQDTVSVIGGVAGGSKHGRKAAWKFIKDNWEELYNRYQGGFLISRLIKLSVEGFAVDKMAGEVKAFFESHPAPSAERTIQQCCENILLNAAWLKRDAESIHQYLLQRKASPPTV
UniProt Q92973: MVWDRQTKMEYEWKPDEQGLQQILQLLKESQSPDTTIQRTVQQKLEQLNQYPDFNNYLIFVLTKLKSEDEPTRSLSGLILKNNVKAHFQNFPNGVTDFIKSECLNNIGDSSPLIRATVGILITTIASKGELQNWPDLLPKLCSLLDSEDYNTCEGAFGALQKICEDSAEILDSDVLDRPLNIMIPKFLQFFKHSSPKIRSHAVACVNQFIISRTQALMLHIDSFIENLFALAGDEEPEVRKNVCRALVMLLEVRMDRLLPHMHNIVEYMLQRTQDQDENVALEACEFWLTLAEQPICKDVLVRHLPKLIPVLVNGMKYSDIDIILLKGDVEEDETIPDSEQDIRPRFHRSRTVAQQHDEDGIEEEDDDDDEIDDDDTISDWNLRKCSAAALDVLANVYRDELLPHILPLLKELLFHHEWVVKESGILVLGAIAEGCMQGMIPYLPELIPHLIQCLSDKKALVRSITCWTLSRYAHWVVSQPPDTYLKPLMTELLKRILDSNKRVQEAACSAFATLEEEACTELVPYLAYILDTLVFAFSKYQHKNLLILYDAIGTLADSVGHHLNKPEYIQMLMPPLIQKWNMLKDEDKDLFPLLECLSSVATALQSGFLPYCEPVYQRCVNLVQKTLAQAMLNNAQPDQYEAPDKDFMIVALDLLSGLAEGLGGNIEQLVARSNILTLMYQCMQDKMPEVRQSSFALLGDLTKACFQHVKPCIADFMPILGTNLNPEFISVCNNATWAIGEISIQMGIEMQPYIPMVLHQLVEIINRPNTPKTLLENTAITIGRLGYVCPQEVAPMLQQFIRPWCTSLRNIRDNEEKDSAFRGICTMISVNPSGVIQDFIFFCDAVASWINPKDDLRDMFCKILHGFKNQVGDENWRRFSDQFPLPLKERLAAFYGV
UniProt P57678: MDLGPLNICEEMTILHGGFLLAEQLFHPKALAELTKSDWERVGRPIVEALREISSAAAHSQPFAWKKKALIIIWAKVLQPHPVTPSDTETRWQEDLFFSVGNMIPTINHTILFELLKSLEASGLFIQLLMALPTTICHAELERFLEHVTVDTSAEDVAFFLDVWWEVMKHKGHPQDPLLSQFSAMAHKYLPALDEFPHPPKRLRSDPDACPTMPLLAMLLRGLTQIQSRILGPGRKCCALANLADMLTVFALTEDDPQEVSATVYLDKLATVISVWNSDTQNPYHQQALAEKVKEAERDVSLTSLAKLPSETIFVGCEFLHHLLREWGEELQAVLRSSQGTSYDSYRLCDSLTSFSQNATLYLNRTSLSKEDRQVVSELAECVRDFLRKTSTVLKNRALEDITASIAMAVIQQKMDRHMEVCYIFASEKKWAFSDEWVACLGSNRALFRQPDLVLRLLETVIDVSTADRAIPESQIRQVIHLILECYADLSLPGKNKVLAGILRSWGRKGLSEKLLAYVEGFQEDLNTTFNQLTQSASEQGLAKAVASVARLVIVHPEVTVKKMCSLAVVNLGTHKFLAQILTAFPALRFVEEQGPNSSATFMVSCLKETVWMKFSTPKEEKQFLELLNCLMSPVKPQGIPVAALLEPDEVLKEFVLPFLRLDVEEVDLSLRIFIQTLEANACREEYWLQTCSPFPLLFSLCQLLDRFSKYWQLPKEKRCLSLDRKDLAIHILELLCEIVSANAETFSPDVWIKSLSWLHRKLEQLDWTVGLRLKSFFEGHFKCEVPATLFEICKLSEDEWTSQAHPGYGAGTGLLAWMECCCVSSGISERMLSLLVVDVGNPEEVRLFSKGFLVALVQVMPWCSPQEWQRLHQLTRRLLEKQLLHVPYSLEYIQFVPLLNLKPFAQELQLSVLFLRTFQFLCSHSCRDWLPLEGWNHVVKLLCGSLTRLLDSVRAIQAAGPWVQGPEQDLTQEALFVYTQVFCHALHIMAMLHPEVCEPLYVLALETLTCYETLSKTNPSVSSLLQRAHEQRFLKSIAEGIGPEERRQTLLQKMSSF

Assay [1] deals with N-terminally SF (Strep-Flag)-tagged human ARL13B (wild type) (human) (UniProt Q3SXY8). As to the kind of experiment: affinity purification with mass spectrometry; SF-TAP: two steps (Strep-Tactin Superflow, then anti-Flag M2 agarose, Flag peptide elution) from lysates of HEK293T cells transiently expressing SF-tagged ARL13B; lysis in TBS with 0.5% Nonidet-P40, 4°C; compared with SF tag alone; LC-MS/MS.

Assay [2] shares this target. As to the kind of experiment: affinity purification with mass spectrometry; SILAC with one-step Strep-Tactin purification from HEK293T lysates; SF-tagged ARL13B against SF-TAP alone or mutated SF-tagged ARL13B; eluates combined; quantitative MS, at least 2-fold enrichment.

No constants are given. Whether binding was seen depends on the method and setting. Binding seen in cells or lysates may run through a third protein. These calls come from enrichment with a bait or labelling near it, and not all partners need be listed.

For “DDB1 and CUL4 associated factor 8 (from UniProt Q5TAQ9 1-597)”, the binding entry in assay [1] and in assay [2] was “binds” throughout.
For exportin 5 (from UniProt Q9HAV4 1-1204), the binding result in assay [1] and in assay [2] was “binds” throughout.
importin 5 (from UniProt O00410 1-1097): the binding entry in assay [1] and in assay [2] was “binds” each time.
Consider importin 8 (from UniProt O15397 1-1037), for which the binding result in assay [1] and in assay [2] was “binds” each time.
“Fanconi anemia, complementation group D2 (from UniProt Q9BXW9 1-1451)”: the binding entry in assay [1] and in assay [2] was “binds” in each case.
Consider “major histocompatibility complex, class I, C (from UniProt P10321 25-366)”, for which the binding entry in assay [1] and in assay [2] was “binds” throughout.
As to “Telomere maintenance 2 (from UniProt Q9Y4R8 1-837)”, the binding entry in assay [1] and in assay [2] was “binds” in each case.
Regarding “ankyrin repeat domain 13A (from UniProt Q8IZ07 1-590)”, the binding entry in assay [1] and in assay [2] was “binds” in each case.
With “aminopeptidase puromycin sensitive (from UniProt P55786 1-919)”, the binding entry in assay [1] and in assay [2] was “binds” each time.
For the molecule “transportin 1 (from UniProt Q92973 1-898)”, the binding result in assay [1] and in assay [2] was “binds” throughout.
For “ribosomal protein, large, P1 (from UniProt P05386 1-114)”, the binding entry in assay [1] and in assay [2] was “binds” throughout.
“cullin-associated and neddylation-dissociated 2 (from UniProt O75155 1-1236)”: the binding entry in assay [1] and in assay [2] was “binds” each time.
Take “gem associated protein 4 (from UniProt P57678 1-1058)”: the binding entry in assay [1] and in assay [2] was “binds” each time.
For “tetratricopeptide repeat domain 27 (from UniProt Q6P3X3 1-843)”, the binding result in assay [1] and in assay [2] was “binds” throughout.

B1: 2′,3′-cyclic nucleotide 3′ phosphodiesterase (protein, UniProt P09543 1-421)
chain: MNRGFSRKSHTFLPKIFFRKMSSSGAKDKPELQFPFLQDEDTVATLLECKTLFILRGLPGSGKSTLARVIVDKYRDGTKMVSADAYKITPGARGAFSEEYKRLDEDLAAYCRRRDIRILVLDDTNHERERLEQLFEMADQYQYQVVLVEPKTAWRLDCAQLKEKNQWQLSADDLKKLKPGLEKDFLPLYFGWFLTKKSSETLRKAGQVFLEELGNHKAFKKELRQFVPGDEPREKMDLVTYFGKRPPGVLHCTTKFCDYGKAPGAEEYAQQDVLKKSYSKAFTLTISALFVTPKTTGARVELSEQQLQLWPSDVDKLSPTDNLPRGSRAHITLGCAADVEAVQTGLDLLEILRQEKGGSRGEEVGELSRGKLYSLGNGRWMLTLAKNMEVRAIFTGYYGKGKPVPTQGSRKGGALQSCTII
With B1, the binding result in assay [1] and in assay [2] was “binds” each time.

B2: armadillo repeat containing 6 (protein, UniProt Q6NXE6 1-501)
chain: MSERCCSRYSSGASIGCTPTSTQAKMVSKRIAQETFDAAVRENIEEFAMGPEEAVKEAVEQFESQGVDLSNIVKTAPKVSADGSQEPTHDILQMLSDLQESVASSRPQEVSAYLTRFCDQCKQDKACRFLAAQKGAYPIIFTAWKLATAGDQGLLLQSLNALSVLTDGQPDLLDAQGLQLLVATLTQNADEADLTCSGIRCVRHACLKHEQNRQDLVKAGVLPLLTGAITHHGHHTDVVREACWALRVMTFDDDIRVPFGHAHNHAKMIVQENKGLKVLIEATKAFLDNPGILSELCGTLSRLAIRNEFCQEVVDLGGLSILVSLLADCNDHQMRDQSGVQELVKQVLSTLRAIAGNDDVKDAIVRAGGTESIVAAMTQHLTSPQVCEQSCAALCFLALRKPDNSRIIVEGGGAVAALQAMKAHPQKAGVQKQACMLIRNLVAHGQAFSKPILDLGAEALIMQARSAHRDCEDVAKAALRDLGCHVELRELWTGQRGNLAP
Consider B2, for which the binding entry in assay [1] and in assay [2] was “binds” each time.

B3: WD repeat domain 17 (protein, UniProt Q8IZU2 1-1322)
chain: MAWMTYISNWFEQDDWYEGLQRANMSQVRQVGLLAAGCQPWNKDVCAASGDRFAYCATLAIYIYQLDHRYNEFKLHAIMSEHKKTITAISWCPHNPDLFASGSTDNLVIIWNVAEQKVIAKLDSTKGIPASLSWCWNAEDVVAFVSHRGPLFIWTISGPDSGVIVHKDAHSFLSDICMFRWHTHQKGKVVFGHIDGSLSIFHPGNKNQKHVLRPESLEGTDEEDPVTALEWDPLSTDYLLVVNLHYGIRLVDSESLSCITTFNLPSAAASVQCLAWVPSAPGMFITGDSQVGVLRIWNVSRTTPIDNLKLKKTGFHCLHVLNSPPRKKFSVQSPTKNHYTSSTSEAVPPPTLTQNQAFSLPPGHAVCCFLDGGVGLYDMGAKKWDFLRDLGHVETIFDCKFKPDDPNLLATASFDGTIKVWDINTLTAVYTSPGNEGVIYSLSWAPGGLNCIAGGTSRNGAFIWNVQKGKIIQRFNEHGTNGIFCIAWSHKDSKRIATCSSDGFCIIRTIDGKVLHKYKHPAAVFGCDWSQNNKDMIATGCEDTNVRVYYVATSSDQPLKVFSGHTAKVFHVKWSPLREGILCSGSDDGTVRIWDYTQDACINILNGHTAPVRGLMWNTEIPYLLISGSWDYTIKVWDTREGTCVDTVYDHGADVYGLTCHPSRPFTMASCSRDSTVRLWSLTALVTPVQINILADRSWEEIIGNTDYAIEPGTPPLLCGKVSRDIRQEIEKLTANSQVKKLRWFSECLSPPGGSDNLWNLVAVIKGQDDSLLPQNYCKGIMHLKHLIKFRTSEAQELTTVKMSKFGGGIGVPAKEERLKEAAEIHLRLGQIQRYCELMVELGEWDKALSIAPGVSVKYWKKLMQRRADQLIQEDKDDVIPYCIAIGDVKKLVHFFMSRGQLKEALLVAQAACEGNMQPLHVSVPKGASYSDDIYKEDFNELLHKVSKELAEWYFQDGRAVLAACCHLAIDNIELAMAYLIRGNELELAVCVGTVLGESAAPATHYALELLARKCMMISVCFPCVGYSVPFCYVNRNLAADLLLMIPDNELHLIKLCAFYPGCTEEINDLHDKCKLPTVEECMQLAETARADDNIFETVKYYLLSQEPEKALPIGISFVKEYISSSDWTLDTIYPVLDLLSYIRTEKLLLHTCTEARNELLILCGYIGALLAIRRQYQSIVPALYEYTSQLLKRREVSVPLKIEYLSEELDAWRACTQSTNRSLEDSPYTPPSDSQRMIYATLLKRLKEESLKGIIGPDYVTGSNLPSHSDIHISCLTGLKIQGPVFFLEDGKSAISLNDALMWAKVNPFSPLGTGIRLNPF
Consider B3, for which the binding result in assay [1] and in assay [2] was “binds” in each case.

B4: peroxisomal biogenesis factor 19 (protein, UniProt P40855 1-299)
chain: MAAAEEGCSVGAEADRELEELLESALDDFDKAKPSPAPPSTTTAPDASGPQKRSPGDTAKDALFASQEKFFQELFDSELASQATAEFEKAMKELAEEEPHLVEQFQKLSEAAGRVGSDMTSQQEFTSCLKETLSGLAKNATDLQNSSMSEEELTKAMEGLGMDEGDGEGNILPIMQSIMQNLLSKDVLYPSLKEITEKYPEWLQSHRESLPPEQFEKYQEQHSVMCKICEQFEAETPTDSETTQKARFEMVLDLMQQLQDLGHPPKELAGEMPPGLNFDLDALNLSGPPGASGEQCLIM
In the case of B4, the binding result in assay [1] and in assay [2] was “binds” each time.

B5: 7-dehydrocholesterol reductase (protein, UniProt Q9UBM7 1-475)
chain: MAAKSQPNIPKAKSLDGVTNDRTASQGQWGRAWEVDWFSLASVIFLLLFAPFIVYYFIMACDQYSCALTGPVVDIVTGHARLSDIWAKTPPITRKAAQLYTLWVTFQVLLYTSLPDFCHKFLPGYVGGIQEGAVTPAGVVNKYQINGLQAWLLTHLLWFANAHLLSWFSPTIIFDNWIPLLWCANILGYAVSTFAMVKGYFFPTSARDCKFTGNFFYNYMMGIEFNPRIGKWFDFKLFFNGRPGIVAWTLINLSFAAKQRELHSHVTNAMVLVNVLQAIYVIDFFWNETWYLKTIDICHDHFGWYLGWGDCVWLPYLYTLQGLYLVYHPVQLSTPHAVGVLLLGLVGYYIFRVANHQKDLFRRTDGRCLIWGRKPKVIECSYTSADGQRHHSKLLVSGFWGVARHFNYVGDLMGSLAYCLACGGGHLLPYFYIIYMAILLTHRCLRDEHRCASKYGRDWERYTAAVPYRLLPGIF
With B5, the binding entry in assay [1] and in assay [2] was “binds” in each case.

B6: ataxin 10 (protein, UniProt Q9UBB4 1-475)
chain: MAAPRPPPARLSGVMVPAPIQDLEALRALTALFKEQRNRETAPRTIFQRVLDILKKSSHAVELACRDPSQVENLASSLQLITECFRCLRNACIECSVNQNSIRNLDTIGVAVDLILLFRELRVEQESLLTAFRCGLQFLGNIASRNEDSQSIVWVHAFPELFLSCLNHPDKKIVAYSSMILFTSLNHERMKELEENLNIAIDVIDAYQKHPESEWPFLIITDLFLKSPELVQAMFPKLNNQERVTLLDLMIAKITSDEPLTKDDIPVFLRHAELIASTFVDQCKTVLKLASEEPPDDEEALATIRLLDVLCEMTVNTELLGYLQVFPGLLERVIDLLRVIHVAGKETTNIFSNCGCVRAEGDISNVANGFKSHLIRLIGNLCYKNKDNQDKVNELDGIPLILDNCNISDSNPFLTQWVIYAIRNLTEDNSQNQDLIAKMEEQGLADASLLKKVGFEVEKKGEKLILKSTRDTPKP
For B6, the binding result in assay [1] and in assay [2] was “binds” in each case.

B7: nucleotide binding protein 2 (protein, UniProt Q9Y5Y2 1-271)
chain: MEAAAEPGNLAGVRHIILVLSGKGGVGKSTISTELALALRHAGKKVGILDVDLCGPSIPRMLGAQGRAVHQCDRGWAPVFLDREQSISLMSVGFLLEKPDEAVVWRGPKKNALIKQFVSDVAWGELDYLVVDTPPGTSDEHMATIEALRPYQPLGALVVTTPQAVSVGDVRRELTFCRKTGLRVMGIVENMSGFTCPHCTECTSVFSRGGGEELAQLAGVPFLGSVPLDPALMRTLEEGHDFIQEFPGSPAFAALTSIAQKILDATPACLP
Turning to B7, the binding entry in assay [1] and in assay [2] was “binds” throughout.

B8: ADP-ribosylation factor-like 1 (protein, UniProt P40616 1-181)
chain: MGGFFSSIFSSLFGTREMRILILGLDGAGKTTILYRLQVGEVVTTIPTIGFNVETVTYKNLKFQVWDLGGQTSIRPYWRCYYSNTDAVIYVVDSCDRDRIGISKSELVAMLEEEELRKAILVVFANKQDMEQAMTSSEMANSLGLPALKDRKWQIFKTSATKGTGLDEAMEWLVETLKSRQ
Regarding B8, the binding entry in assay [1] and in assay [2] was “binds” each time.
